A short description of this assay: qHTS Assay to Find Inhibitors of Chronic Active B-Cell Receptor Signaling. To be noted: ABC-DLBCL IkBa-CBG/CBR reporter, luminescence ratio (green luciferase fused to IkBa over red control in TMD8 lymphoma cells), 4 h. A digest of the protocol: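 Doxycycline induced both beetle luciferases in TMD8 lymphoma cells; IKK-driven degradation limits the IkappaBalpha-fused green signal, while red luminescence normalises for cell number and nonspecific effects. Compounds tested up to 46 uM, 4 hrs.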

Where [1] appears, read: measured here: CBR red luminescence, cell number.
[2] abbreviates: measured here: IkBa-CBG green luminescence.

The list shows a part of the results. Shown are side measurements of this screen, not its main read-out; they come without a call. The list favours compounds with an active or inconclusive main result. Words in brackets tell the shape of the fitted curve; partial curves, single points and poor fits give uncertain potencies.

A word on the AC50: it is the concentration at which the activity in the assay is half-maximal.

For `O=C(N/N=C\c1ccc2c(c1)OCO2)c1ccc(Cn2cc(Br)c([N+](=O)[O-])n2)o1`, the AC50 under setting [1] was 2.82 µM [falling, partial curve, poor fit].

On to `Cc1ccc(NC(=O)C(=O)NCC2CCCO2)cc1` (stereo not drawn), for which the AC50 under setting [1] is 3.98 µM [falling, partial curve].

For `Cc1cccc(NS(=O)(=O)c2cc(C(=O)NCCC3=CCCCC3)ccc2Cl)c1`, under setting [1], the AC50 was 10 µM [falling, partial curve].

`CN1/C(=C\C(=O)COC(=O)CNC(=O)c2ccc3ccccc3c2)C(C)(C)c2ccccc21`: under setting [1], the AC50 was 29.1 µM [falling, single point].

As for `Cc1nc([N+](=O)[O-])c(Sc2nc3ccccc3n2C)n1Cc1ccccc1`, the half-maximal activity concentration (AC50) under setting [1] was 20.6 µM [falling, partial curve, poor fit] and the half-maximal activity concentration (AC50) under setting [2] was 25.9 µM [rising, partial curve, poor fit].

Regarding `c1ccc(N/N=C2\CCCc3ccccc32)nc1`, the AC50 under setting [1] is 0.891 µM [rising, full curve, poor fit].

As to `COC(=O)c1ccc(NC(=O)CSc2nnc(CNc3ccc(F)cc3)n2C)cc1`, under setting [1], the AC50 is 25.9 µM [falling, single point].

`COc1ccc(-c2cc(C3CCN(c4ccc(C(C)=O)cc4[N+](=O)[O-])CC3)[nH]n2)cc1`: the AC50 under setting [1] is 31.6 µM [falling, single point].

For `CCOc1cc(N2CCOCC2)c(OCC)cc1NC(=O)c1cccc(S(=O)(=O)N2CCOCC2)c1`, the AC50 under setting [1] is 3.26 µM [rising, full curve, poor fit].

As for `CNC(=S)N/N=C(\C)c1ccc(C)c(C)c1`, the AC50 was 20.6 µM [falling, single point] under setting [1] and 23.1 µM [falling, single point] under setting [2].

For the compound `CC(OCC(O)CN(C)Cc1nc2ccccc2c(=O)[nH]1)c1ccc(Cl)cc1` (stereo not drawn), the AC50 under setting [1] is 12.6 µM [falling, single point].

Turning to `CC(C)Nc1ccc(C(CC(N)=O)NC(=O)Cc2cccc3ccccc23)cc1[N+](=O)[O-]` (stereo not drawn), the AC50 under setting [1] is 0.562 µM [rising, full curve, poor fit].

`Cc1ccc(C)c(Nc2ncnc3c2cnn3-c2ccc(F)cc2)c1`: the AC50 under setting [1] is 12.6 µM [falling, partial curve, poor fit].

As to `CCOC(=O)C1CCN(C(=O)CC2(CC(=O)O)CCCC2)CC1`, under setting [1], the AC50 is 10 µM [rising, partial curve].

In the case of `Cc1ncoc1C(=O)NCc1ccccc1Cl`, the AC50 under setting [1] is 35.5 µM [falling, single point].

Take `COc1ccc(C)cc1NS(=O)(=O)c1ccc(-c2cnc(C3CC3)o2)cc1`: the AC50 runs as follows: under setting [1], 2.82 µM [rising, full curve, poor fit]; under setting [2], 4.47 µM [falling, full curve].

`Cc1cc2ncc(C(=O)Nc3ccccc3)c(C)n2n1`: the AC50 under setting [1] is 2.91 µM [rising, partial curve, poor fit].

Consider `O=C1OC(C(=O)O)Cc2ccccc21` (stereo not drawn), for which, under setting [1], the AC50 was 25.9 µM [rising, partial curve, poor fit].

For `CCOc1ccc(/C=C/C(=O)c2cc(Br)ccc(=O)c2O)cc1`, under setting [1], the AC50 is 18.4 µM [falling, partial curve].

As for `Nc1nc(Cl)cc(Sc2ccc(F)cc2)n1`, the AC50 under setting [1] was 7.31 µM [rising, partial curve].

With `Cc1ccc(-c2c(C)sc3ncn(CC(=O)N4CCOCC4)c(=O)c23)cc1C`, the AC50 under setting [1] is 6.31 µM [rising, single point].

Consider `COc1ccc(CCNC(=O)c2c[nH]n3c(=O)c(Cc4ccccc4Cl)c(C)nc23)cc1OC`, for which the concentration at half-maximal activity (AC50) under setting [1] was 12.6 µM [rising, partial curve, poor fit].

`CCc1cc2c(=O)c(-c3nc4ccccc4[nH]3)coc2c(CN2CCCCC2C)c1O` (stereo not drawn): the AC50 under setting [1] was 17.8 µM [falling, partial curve, poor fit].

Regarding `Cc1nc(S(=O)(=O)N(C)c2ccccc2)c(C#N)c(C)c1Cl`, the AC50 under setting [1] was 14.1 µM [falling, single point].

As for `CCOc1cc(N2CCOCC2)c(OCC)cc1NS(=O)(=O)c1ccc(Cl)s1`, the AC50 runs as follows: under setting [1], 35.5 µM [rising, single point]; under setting [2], 22.4 µM [falling, partial curve, poor fit].

On to `COc1cccc(C(=O)Nc2ccc3nc(N4CCN(c5ncccn5)CC4)cc(C)c3c2)c1OC`, for which the AC50 runs as follows: under setting [1], 5.17 µM [falling, full curve]; under setting [2], 13 µM [rising, partial curve, poor fit].

Consider `O=c1c(Sc2ccccc2)c(C(F)(F)F)[nH]n1-c1ccccc1`, for which the AC50 under setting [1] was 23.1 µM [falling, partial curve, poor fit].

For `CCOc1ccc(C(=O)NC(=S)Nc2ccccn2)cc1[N+](=O)[O-]`, the AC50 under setting [1] is 2.82 µM [falling, full curve].

In the case of `Cc1ccc(C(C2C(=O)CC(C)(C)CC2=O)C2C(=O)CC(C)(C)CC2=O)s1`, the AC50 under setting [1] was 35.5 µM [rising, single point].

As to `O=C(NCc1ccc2c(c1)OCO2)Nc1ccc(Cl)cc1`, the AC50 under setting [1] is 22.4 µM [falling, partial curve, poor fit].

For the compound `O=c1oc2ccccc2c(Nc2ccccc2O)c1[N+](=O)[O-]`, the AC50 under setting [1] was 3.16 µM [rising, single point].

With `CN(C)c1ccc(NC(=S)NC(=O)/C=C/c2ccc(Cl)cc2)cc1`, under setting [1], the AC50 is 25.9 µM [rising, single point].

As for `C[C@@H]1C[C@@H]2OC(=O)[C@]3(C)[C@H]2[C@@H](OC3(C)O)[C@]2(C)C(=O)C=C[C@H]12` (stereo partly drawn), the AC50 under setting [1] is 17.8 µM [falling, partial curve].

With `O=C(N/N=C/c1ccccn1)c1cc(-c2ccccc2Cl)n[nH]1`, the AC50 under setting [1] was 1.26 µM [falling, partial curve, poor fit].

Take `O=c1cc(C(F)(F)F)[nH]c2ccc(OC(F)(F)F)cc12`: the AC50 by setting is: under setting [1], 4.47 µM [falling, full curve]; under setting [2], 2.82 µM [rising, full curve].

As to `O=C(COc1ccc([N+](=O)[O-])cc1)NNC(=S)NC(=O)c1ccc(Br)cc1`, under setting [1], the AC50 was 11.2 µM [rising, partial curve].

With `CCCCOc1ccc(Cl)cc1CSc1nncn1N`, the half-maximal activity concentration (AC50) under setting [1] was 10.3 µM [rising, partial curve, poor fit].

`O=C1c2ccc([N+](=O)[O-])cc2NC(c2ccco2)N1/N=C/c1ccco1` (stereo not drawn): the AC50 under setting [1] is 35.5 µM [falling, single point].

Regarding `Cc1nnc(Sc2cc(NCCO)c([N+](=O)[O-])c3nonc23)s1`, the AC50 under setting [1] was 17.8 µM [falling, single point].

As for `Cc1ccccc1C(=O)OCc1nnc(-c2ccc(Cl)cc2)o1`, under setting [1], the AC50 was 35.5 µM [falling, single point].

With `CC(=O)N1CCN(c2cc(N3CCc4ccccc4C3)c(F)cc2[N+](=O)[O-])CC1`, the AC50 under setting [1] is 17.8 µM [falling, single point].

Consider `Cn1c2ccccc2c2cc([N+](=O)[O-])ccc21`, for which the AC50 under setting [1] was 11.2 µM [rising, single point].

Take `CCOC(=O)c1ccc(NC(=S)N2CCSC2c2ccc(OC)cc2)cc1` (stereo not drawn): under setting [1], the concentration at half-maximal activity (AC50) was 29.1 µM [falling, single point].

`COCCn1c(-c2ccc(OC)cc2)cnc1SCC(=O)Nc1cc(C)on1`: under setting [1], the AC50 is 23.1 µM [falling, single point].

For the compound `O=C1CC(C(F)(F)F)=NN1`, the AC50 under setting [1] was 0.1 µM [rising, full curve, poor fit].

Regarding `Cc1c(NS(=O)(=O)c2cccc(C(=O)N3CCC(C)CC3)c2)c(=O)n(-c2ccccc2)n1C`, the AC50 under setting [1] is 29.1 µM [falling, single point].

With `Nn1c(SCc2ccccc2)nnc1-c1ccccn1`, the concentration at half-maximal activity (AC50) under setting [1] is 35.5 µM [falling, single point].

Regarding `CC(C)(C)C1CCc2c(sc(NC(=O)CSc3ncn[nH]3)c2C#N)C1` (stereo not drawn), the AC50 under setting [1] was 25.9 µM [rising, partial curve].

`CC(Sc1nc2ccccc2c(=O)n1C)C(=O)N(C)C1CCCCC1` (stereo not drawn): the AC50 under setting [1] is 8.2 µM [falling, partial curve].

As to `CCC(=O)Nc1ccc(N/C(N)=N/c2nc(C)cc(C)n2)cc1`, under setting [1], the AC50 was 0.1 µM [rising, full curve, poor fit].

Turning to `O=C(Cc1cn2ccsc2n1)OCc1ccccc1`, under setting [1], the AC50 was 9.2 µM [falling, partial curve, poor fit].

For the compound `CC(=N\NC(=O)c1cc(Br)ccc1O)/C(=N/O)C(=O)Nc1ccccc1`, the AC50 under setting [1] is 7.08 µM [falling, partial curve].

For `O=C1CN(C(=O)COC(=O)CCc2ccccc2)c2ccccc2N1`, the concentration at half-maximal activity (AC50) under setting [1] is 29.1 µM [rising, single point].

Regarding `C/C(=N\OCC(=O)N/N=C/c1ccccc1)c1cccs1`, the concentration at half-maximal activity (AC50) under setting [1] is 29.1 µM [falling, single point].

For the compound `Cc1nc2sccn2c1-c1csc(NCc2ccccc2)n1`, under setting [1], the AC50 is 20 µM [falling, partial curve].

`Cc1cc(C)c(S(=O)(=O)N2CCN(C(=O)c3ccc(-n4cncn4)c([N+](=O)[O-])c3)CC2)c(C)c1`: under setting [1], the AC50 was 2.31 µM [falling, partial curve, poor fit].

On to `CCN(CC)C(=O)CSc1nc2c(sc(=S)n2-c2ccccc2)c(=O)n1-c1ccccc1OC`, for which the AC50 under setting [1] was 7.08 µM [falling, partial curve].

On to `O=C(OCc1nc2ccccc2s1)c1cnccn1`, for which the AC50 under setting [1] is 3.55 µM [rising, full curve, poor fit].

On to `N#CCCSc1ccccc1NC(=O)c1cc(=O)c2ccccc2o1`, for which the AC50 under setting [1] was 1.58 µM [falling, full curve].

On to `CCCCSc1nnc2c(n1)[nH]c1ccccc12`, for which, under setting [1], the AC50 was 2.06 µM [rising, partial curve, poor fit].

`CCC/C=N/NC(=O)c1cc(Br)ccc1O`: the AC50 under setting [1] was 1.16 µM [falling, full curve].

Turning to `CCOC(=O)C1CCN(C(=O)Cn2cc(C#N)c3ccccc32)CC1`, the half-maximal activity concentration (AC50) under setting [1] was 25.9 µM [falling, partial curve, poor fit].

For the origin of these results see PubChem BioAssay AID493014 (National Center for Advancing Translational Sciences (NCATS), 2011).
